Among the data in article PMC4923796 are binding values, retold here.

Results are given in words; binding and its absence hold for the method and conditions named. Binding seen in cells or lysates may run through a third protein. Some entries that bind do so weakly or less than the wild type. Sequences can lack the tags named with a protein.

The assay deals with T1, ERΔK-GFP (ERECTA lacking the cytoplasmic kinase domain, C-terminal GFP fusion) (Arabidopsis thaliana) (UniProt Q42371).
T1 sequence: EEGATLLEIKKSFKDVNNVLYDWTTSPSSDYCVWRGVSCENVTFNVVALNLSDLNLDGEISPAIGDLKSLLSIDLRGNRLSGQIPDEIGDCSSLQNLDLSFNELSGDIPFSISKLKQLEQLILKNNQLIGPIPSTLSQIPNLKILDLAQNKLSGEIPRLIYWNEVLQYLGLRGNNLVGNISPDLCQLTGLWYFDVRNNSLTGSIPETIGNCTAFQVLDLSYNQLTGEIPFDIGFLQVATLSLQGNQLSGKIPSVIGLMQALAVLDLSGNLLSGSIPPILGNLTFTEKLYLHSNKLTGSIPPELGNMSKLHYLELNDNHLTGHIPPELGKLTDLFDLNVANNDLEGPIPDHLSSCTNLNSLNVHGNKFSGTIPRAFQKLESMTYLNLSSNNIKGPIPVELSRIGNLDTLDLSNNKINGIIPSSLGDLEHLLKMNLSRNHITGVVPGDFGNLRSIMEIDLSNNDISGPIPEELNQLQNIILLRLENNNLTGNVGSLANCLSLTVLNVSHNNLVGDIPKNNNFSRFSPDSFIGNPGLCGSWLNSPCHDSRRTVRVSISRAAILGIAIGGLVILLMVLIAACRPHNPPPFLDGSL
Briefly: co-IP; N. benthamiana leaves transiently co-expressing ERΔK-GFP and BAK1-HA, infiltrated with water (mock) or PcBMM spores for 15 or 30 min; extract in 50 mM Tris pH 7.5, 150 mM NaCl, 1% IGEPAL CA-630; IP with anti-GFP antibody and Protein G Dynabeads at 4°C, washes with 2% IGEPAL; immunoblot with anti-HA.

B1: BAK1-HA (BRASSINOSTEROID … 1-associated kinase 1, full length, with a C-terminal HA fusion) (receptor, UniProt Q94F62 26-615)
chain: NAEGDALSALKNSLADPNKVLQSWDATLVTPCTWFHVTCNSDNSVTRVDLGNANLSGQLVMQLGQLPNLQYLELYSNNITGTIPEQLGNLTELVSLDLYLNNLSGPIPSTLGRLKKLRFLRLNNNSLSGEIPRSLTAVLTLQVLDLSNNPLTGDIPVNGSFSLFTPISFANTKLTPLPASPPPPISPTPPSPAGSNRITGAIAGGVAAGAALLFAVPAIALAWWRRKKPQDHFFDVPAEEDPEVHLGQLKRFSLRELQVASDNFSNKNILGRGGFGKVYKGRLADGTLVAVKRLKEERTQGGELQFQTEVEMISMAVHRNLLRLRGFCMTPTERLLVYPYMANGSVASCLRERPESQPPLDWPKRQRIALGSARGLAYLHDHCDPKIIHRDVKAANILLDEEFEAVVGDFGLAKLMDYKDTHVTTAVRGTIGHIAPEYLSTGKSSEKTDVFGYGVMLLELITGQRAFDLARLANDDDVMLLDWVKGLLKEKKLEALVDVDLQGNYKDEEVEQLIQVALLCTQSSPMERPKMSEVVRMLEGDGLAERWEEWQKEEMFRQDFNYPTHHPAVSGWIIGDSTSQIENEYPSGPR
Consider B1, for which the binding result is “binds”.
